Read-outs that look alike come from different tables or passages of the source. Results are given in words; binding and its absence hold for the method and conditions named. In cells and extracts the contact can be indirect. For some assays here: Sequences can lack the tags named with a protein.
Columns and labels:
Test in all cases: split reporter
[1] = molecular target: calcitonin-like receptor (CLR), smBit-tagged Target construct (UniProt Q16602)
[2] = molecular target: calcitonin-like receptor (CLR), smBit-tagged Target construct (UniProt Q16602); remark: listed apart in the source
[3] = molecular target: calcitonin-like receptor (CLR), smBit-tagged Target construct (UniProt Q16602); remark: listed apart in the source
[4] = molecular target: T1, mouse erythropoietin receptor (EpoR), smBit-tagged Target construct (mouse) (UniProt P14753)
T1 sequence: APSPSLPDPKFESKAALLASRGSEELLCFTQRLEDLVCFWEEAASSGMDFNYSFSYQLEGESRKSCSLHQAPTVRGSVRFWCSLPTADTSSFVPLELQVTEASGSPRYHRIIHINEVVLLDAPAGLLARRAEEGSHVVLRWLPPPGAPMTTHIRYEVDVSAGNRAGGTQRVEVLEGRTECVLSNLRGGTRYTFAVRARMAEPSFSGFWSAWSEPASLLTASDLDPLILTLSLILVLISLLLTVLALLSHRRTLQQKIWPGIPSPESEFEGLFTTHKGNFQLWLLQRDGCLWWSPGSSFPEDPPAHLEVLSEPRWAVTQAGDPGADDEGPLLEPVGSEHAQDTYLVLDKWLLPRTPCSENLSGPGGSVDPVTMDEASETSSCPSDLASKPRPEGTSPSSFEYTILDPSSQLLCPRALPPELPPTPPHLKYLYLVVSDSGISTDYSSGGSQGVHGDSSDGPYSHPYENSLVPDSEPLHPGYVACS

Chains of the proteins cited; added tags and fusions are not shown. Residues count along the entry.
UniProt Q16602, residues 23-461: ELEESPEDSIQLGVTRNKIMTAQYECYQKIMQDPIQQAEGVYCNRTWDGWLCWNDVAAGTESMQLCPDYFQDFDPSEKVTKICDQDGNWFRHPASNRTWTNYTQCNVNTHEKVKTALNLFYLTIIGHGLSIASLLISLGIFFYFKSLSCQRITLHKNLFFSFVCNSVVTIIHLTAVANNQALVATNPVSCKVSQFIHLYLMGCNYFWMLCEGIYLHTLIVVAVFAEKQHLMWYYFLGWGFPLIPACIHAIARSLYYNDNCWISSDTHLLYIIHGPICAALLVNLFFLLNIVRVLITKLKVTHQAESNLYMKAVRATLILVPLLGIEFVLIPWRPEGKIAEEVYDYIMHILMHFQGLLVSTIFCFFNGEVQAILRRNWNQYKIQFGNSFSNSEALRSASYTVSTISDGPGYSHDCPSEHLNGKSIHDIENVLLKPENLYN
UniProt P01732, residues 22-235: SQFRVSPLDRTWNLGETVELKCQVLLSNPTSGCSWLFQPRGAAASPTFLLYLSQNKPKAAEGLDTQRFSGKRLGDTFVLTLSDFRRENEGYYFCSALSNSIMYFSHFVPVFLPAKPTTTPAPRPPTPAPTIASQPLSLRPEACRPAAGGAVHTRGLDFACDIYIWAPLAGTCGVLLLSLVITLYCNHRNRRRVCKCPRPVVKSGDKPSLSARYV
UniProt Q07108, residues 3-199: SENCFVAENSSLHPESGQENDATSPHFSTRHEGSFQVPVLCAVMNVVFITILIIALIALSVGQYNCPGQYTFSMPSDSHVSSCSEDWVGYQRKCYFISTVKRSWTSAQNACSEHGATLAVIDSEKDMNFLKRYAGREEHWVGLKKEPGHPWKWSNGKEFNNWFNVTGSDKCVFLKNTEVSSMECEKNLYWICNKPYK

[5] = molecular target: calcitonin-like receptor (CLR), smBit-tagged Target construct (UniProt Q16602); remark: listed apart in the source

Which results are given for “CD8a, LgBit-tagged Binder construct (from UniProt P01732 22-235)”?
binding [1]: no binding; binding [2]: no binding; binding [3]: no binding

For “CD69, LgBit-tagged Binder construct (wild type) (from UniProt Q07108 3-199)”, which binding [4] is on record?
Its binding is “no binding”.

B1: erythropoietin receptor (EpoR) used as LgBit-tagged non-specific Binder (receptor, UniProt P14753 25-507)
chain: APSPSLPDPKFESKAALLASRGSEELLCFTQRLEDLVCFWEEAASSGMDFNYSFSYQLEGESRKSCSLHQAPTVRGSVRFWCSLPTADTSSFVPLELQVTEASGSPRYHRIIHINEVVLLDAPAGLLARRAEEGSHVVLRWLPPPGAPMTTHIRYEVDVSAGNRAGGTQRVEVLEGRTECVLSNLRGGTRYTFAVRARMAEPSFSGFWSAWSEPASLLTASDLDPLILTLSLILVLISLLLTVLALLSHRRTLQQKIWPGIPSPESEFEGLFTTHKGNFQLWLLQRDGCLWWSPGSSFPEDPPAHLEVLSEPRWAVTQAGDPGADDEGPLLEPVGSEHAQDTYLVLDKWLLPRTPCSENLSGPGGSVDPVTMDEASETSSCPSDLASKPRPEGTSPSSFEYTILDPSSQLLCPRALPPELPPTPPHLKYLYLVVSDSGISTDYSSGGSQGVHGDSSDGPYSHPYENSLVPDSEPLHPGYVACS
For B1, which binding [5] is on record?
Its binding is “no binding”.
